In PMC5620087:
Results are given in words; binding and its absence hold for the method and conditions named. In cells and extracts the contact can be indirect. Some binding calls cover weakened binding; strength is not graded here.

The chains behind the UniProt entries cited, without tags or fusion partners.
UniProt Q80TZ9: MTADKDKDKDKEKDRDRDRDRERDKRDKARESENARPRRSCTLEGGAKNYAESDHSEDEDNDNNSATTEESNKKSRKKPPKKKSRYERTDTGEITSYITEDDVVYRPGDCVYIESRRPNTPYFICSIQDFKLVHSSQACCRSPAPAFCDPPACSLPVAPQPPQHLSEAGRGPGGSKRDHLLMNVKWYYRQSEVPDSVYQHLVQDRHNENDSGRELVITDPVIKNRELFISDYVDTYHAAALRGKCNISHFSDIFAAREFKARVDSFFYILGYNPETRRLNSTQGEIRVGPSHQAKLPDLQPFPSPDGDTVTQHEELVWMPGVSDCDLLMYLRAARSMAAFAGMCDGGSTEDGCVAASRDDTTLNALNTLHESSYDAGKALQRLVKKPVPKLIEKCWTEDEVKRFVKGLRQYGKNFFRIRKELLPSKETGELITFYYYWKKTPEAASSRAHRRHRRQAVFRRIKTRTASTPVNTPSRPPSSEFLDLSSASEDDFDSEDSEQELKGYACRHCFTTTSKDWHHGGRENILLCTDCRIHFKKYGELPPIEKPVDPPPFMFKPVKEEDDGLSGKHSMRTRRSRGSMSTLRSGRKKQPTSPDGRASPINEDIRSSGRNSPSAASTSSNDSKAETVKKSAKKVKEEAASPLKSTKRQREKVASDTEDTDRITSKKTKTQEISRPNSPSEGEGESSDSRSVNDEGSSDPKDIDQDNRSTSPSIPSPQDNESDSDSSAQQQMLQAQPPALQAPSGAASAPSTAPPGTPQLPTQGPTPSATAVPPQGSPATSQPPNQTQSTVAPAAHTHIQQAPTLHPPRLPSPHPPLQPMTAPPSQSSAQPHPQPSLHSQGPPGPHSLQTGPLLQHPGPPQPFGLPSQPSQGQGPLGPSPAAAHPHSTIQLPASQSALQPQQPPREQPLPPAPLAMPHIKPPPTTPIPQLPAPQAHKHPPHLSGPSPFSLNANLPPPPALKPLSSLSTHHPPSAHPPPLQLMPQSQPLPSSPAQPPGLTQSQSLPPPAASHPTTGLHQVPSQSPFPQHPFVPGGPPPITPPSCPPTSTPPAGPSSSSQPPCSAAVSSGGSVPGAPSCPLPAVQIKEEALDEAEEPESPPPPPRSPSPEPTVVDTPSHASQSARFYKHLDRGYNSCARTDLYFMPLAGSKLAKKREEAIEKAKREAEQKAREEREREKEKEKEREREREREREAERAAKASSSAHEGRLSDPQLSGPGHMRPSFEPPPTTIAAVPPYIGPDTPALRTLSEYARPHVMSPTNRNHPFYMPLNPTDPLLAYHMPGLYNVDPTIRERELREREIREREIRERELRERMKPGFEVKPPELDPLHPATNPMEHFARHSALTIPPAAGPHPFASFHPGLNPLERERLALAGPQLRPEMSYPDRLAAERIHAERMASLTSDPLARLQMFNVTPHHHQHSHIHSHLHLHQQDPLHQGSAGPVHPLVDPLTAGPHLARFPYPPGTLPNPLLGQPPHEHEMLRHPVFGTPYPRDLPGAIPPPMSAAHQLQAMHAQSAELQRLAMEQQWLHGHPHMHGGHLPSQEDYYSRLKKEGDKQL
UniProt O09106: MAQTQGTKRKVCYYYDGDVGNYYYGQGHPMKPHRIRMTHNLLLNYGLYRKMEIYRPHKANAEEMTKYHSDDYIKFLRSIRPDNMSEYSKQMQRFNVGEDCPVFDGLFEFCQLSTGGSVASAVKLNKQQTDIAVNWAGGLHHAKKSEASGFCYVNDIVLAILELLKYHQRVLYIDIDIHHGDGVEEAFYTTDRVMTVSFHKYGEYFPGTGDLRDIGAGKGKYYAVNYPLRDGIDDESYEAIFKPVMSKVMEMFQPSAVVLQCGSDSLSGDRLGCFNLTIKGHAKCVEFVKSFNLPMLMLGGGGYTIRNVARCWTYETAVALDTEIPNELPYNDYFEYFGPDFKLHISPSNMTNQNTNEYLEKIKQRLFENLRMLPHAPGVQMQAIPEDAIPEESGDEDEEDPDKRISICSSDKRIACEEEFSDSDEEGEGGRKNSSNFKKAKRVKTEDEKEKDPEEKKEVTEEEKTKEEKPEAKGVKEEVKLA
UniProt P70288: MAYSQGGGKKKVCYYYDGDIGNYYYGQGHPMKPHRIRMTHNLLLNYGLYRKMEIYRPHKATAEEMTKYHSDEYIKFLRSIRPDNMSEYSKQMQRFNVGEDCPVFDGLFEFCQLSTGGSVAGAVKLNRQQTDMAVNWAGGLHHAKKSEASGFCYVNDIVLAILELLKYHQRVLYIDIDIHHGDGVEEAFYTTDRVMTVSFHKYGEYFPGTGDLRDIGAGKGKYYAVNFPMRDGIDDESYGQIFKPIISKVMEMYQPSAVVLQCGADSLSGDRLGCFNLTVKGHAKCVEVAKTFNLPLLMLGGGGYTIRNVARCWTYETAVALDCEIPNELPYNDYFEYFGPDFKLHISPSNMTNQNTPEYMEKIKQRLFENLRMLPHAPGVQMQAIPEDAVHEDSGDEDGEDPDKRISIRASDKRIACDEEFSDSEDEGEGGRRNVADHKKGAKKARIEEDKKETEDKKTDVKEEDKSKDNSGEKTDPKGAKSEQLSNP

B1: retinoic acid receptor alpha (endogenous, NIH3T3) (receptor, UniProt P11416 1-462)
chain: MASNSSSCPTPGGGHLNGYPVPPYAFFFPPMLGGLSPPGALTSLQHQLPVSGYSTPSPATIETQSSSSEEIVPSPPSPPPLPRIYKPCFVCQDKSSGYHYGVSACEGCKGFFRRSIQKNMVYTCHRDKNCIINKVTRNRCQYCRLQKCFDVGMSKESVRNDRNKKKKEAPKPECSESYTLTPEVGELIEKVRKAHQETFPALCQLGKYTTNNSSEQRVSLDIDLWDKFSELSTKCIIKTVEFAKQLPGFTTLTIADQITLLKAACLDILILRICTRYTPEQDTMTFSDGLTLNRTQMHNAGFGPLTDLVFAFANQLLPLEMDDAETGLLSAICLICGDRQDLEQPDKVDMLQEPLLEALKVYVRKRRPSRPHMFPKMLMKITDLRSISAKGAERVITLKMEIPGSMPPLIQEMLENSEGLDTLSGQSGGGTRDGGGLAPPPGSCSPSLSPSSHRSSPATQSP

Experiments:
[1] = molecular target: Rere (endogenous, NIH3T3) (mouse (endogenous in NIH3T3)) (UniProt Q80TZ9); experiment: co-IP; Rere antibody on protein G sepharose, NIH3T3 whole cell extract, all proteins endogenous; wash 150 mM KCl; western blot; beads only or IgG as negative control
[2] = molecular target: Flag-Hdac1 (NIH3T3) (mouse) (UniProt O09106); experiment: co-IP; NIH3T3 transfected with Flag-Hdac1 alone or with Rere-HA; anti-Flag (or anti-HA) on Dynabeads; 150 mM NaCl; immunoblot for endogenous Rarα

Molecule | binding [1] | binding [2]
Hdac1 (endogenous, NIH3T3) (from UniProt O09106 1-482) | binds | –
Hdac2 (endogenous, NIH3T3) (from UniProt P70288 1-488) | binds | –
B1 | – | binds
